PMC5800702
Results are given in words; binding and its absence hold for the method and conditions named. Binding seen in cells or lysates may run through a third protein. Sequences can lack the tags named with a protein.

Molecular target: T1, V5-tagged ADV-1 (Neurospora crassa) (UniProt Q9P326)
T1 sequence: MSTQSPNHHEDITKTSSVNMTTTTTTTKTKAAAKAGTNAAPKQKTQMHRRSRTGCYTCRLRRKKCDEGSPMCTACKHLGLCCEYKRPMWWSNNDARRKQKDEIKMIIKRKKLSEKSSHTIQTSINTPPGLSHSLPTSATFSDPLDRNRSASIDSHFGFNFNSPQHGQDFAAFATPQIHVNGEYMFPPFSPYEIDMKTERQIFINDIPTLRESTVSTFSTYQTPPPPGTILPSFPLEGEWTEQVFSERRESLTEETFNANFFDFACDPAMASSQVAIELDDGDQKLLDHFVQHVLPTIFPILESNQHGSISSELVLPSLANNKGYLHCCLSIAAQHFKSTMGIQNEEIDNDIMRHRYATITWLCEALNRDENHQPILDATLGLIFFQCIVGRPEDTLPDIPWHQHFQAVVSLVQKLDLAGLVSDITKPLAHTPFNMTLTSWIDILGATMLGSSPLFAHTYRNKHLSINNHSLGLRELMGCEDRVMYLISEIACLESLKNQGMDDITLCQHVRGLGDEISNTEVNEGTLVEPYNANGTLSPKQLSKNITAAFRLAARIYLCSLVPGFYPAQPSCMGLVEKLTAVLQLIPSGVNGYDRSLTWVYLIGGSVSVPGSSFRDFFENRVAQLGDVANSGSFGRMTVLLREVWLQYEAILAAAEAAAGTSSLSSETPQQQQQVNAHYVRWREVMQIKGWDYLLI
Assay: co-IP; ADV-1 purified by V5 agarose beads from strain adv-1^V5, csp-6^FLAG, also with DSP crosslink; CSP-6 looked for in the IP sample

binding: no binding
Substance: CSP-6 tagged with FLAG (Neurospora crassa) (enzyme)
